# Data from PubChem BioAssay AID2685 (National Center for Advancing Translational Sciences (NCATS), 2010).
# This is one part of the list. These are further read-outs of the screen, such as a control signal, another cell line or another target. No call is given for them. Most of these compounds were active or inconclusive in the main read-out, so they are no random draw. The note in brackets gives the kind of curve behind each potency; many fits are weak.
# Assay: qHTS Assay for Lipid Storage Modulators in Drosophila S3 Cells;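 for cell number change: cells counted by Cell Tracker Red CMTPX staining in the red channel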
# Conditions: BODIPY lipid droplet fluorescence, 18-24 h; for cell number change: measured here: cell count max response, cells fed with added oleic acid
# Summary of the method: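 Laser-scanning cytometry quantifies lipid droplet accumulation (500–530 nm total intensity; droplet/cell object ratio) in oleic acid-fed (400 uM added) Drosophila S3 cells treated with a concentration series. 20 uM Triacsin C defined 100% inhibition.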
# [1] = measured here: lipid fluorescence (Fed channel) AC50, cells fed with added oleic acid
# [2] = measured here: cell number channel AC50, cells fed with added oleic acid
Compound,AC50 [1],cell number change,AC50 [2]
CCNC(=O)COc1ccc(/C=C2\COc3ccccc3C2=O)cc1OC,"6.51 µM [falling, single point]",–,–
Cc1c(C#N)c2ncn(Cc3ccccc3)c(=O)c2n1-c1ccccc1,"0.651 µM [rising, full curve, poor fit]",0.0698%,–
CCN(C(=O)N(CC)c1ccccc1)c1ccccc1,"29.1 µM [falling, single point]",-26.9%,"1.03 µM [rising, single point]"
CSC(=O)CC(=O)NC(=O)c1ccccc1,"4.11 µM [falling, partial curve]",–,–
CCOc1ccc(NC(=O)c2cccc(NC3=NC4CS(=O)(=O)CC4S3)c2)cc1 (stereo not given),–,-5.48%,–
O=C(Nc1cccc2ncccc12)C(c1ccccc1)c1ccccc1,"0.092 µM [falling, full curve, poor fit]",-0.308%,"0.206 µM [falling, full curve]"
CCOc1ccc(C(=O)Nn2cnnc2)cc1,"7.31 µM [falling, partial curve]",-8.1%,–
O=C(Nc1ccc(F)cc1F)c1csc(-c2ccncc2)n1,"3.26 µM [falling, full curve]",10.5%,–
CC(C)(C)c1ccc(C(=O)N2CCN(c3ccc(N4CCOCC4)nn3)CC2)cc1,–,39.2%,"18.4 µM [rising, single point]"
S=C(NCc1ccccc1)NCc1ccco1,"6.51 µM [falling, single point]",-7.43%,–
Cc1cc(C(=O)OCC(=O)c2ccccc2)c2ccccc2n1,–,-21.9%,–
CC(C)(Oc1ccc(Cl)cc1)C(=O)OCC(=O)NCCc1ccc(S(N)(=O)=O)cc1,"4.11 µM [falling, full curve, poor fit]",-21.3%,–
CC1(C)CC(=O)C(Sc2nnc(-c3ccc(NS(C)(=O)=O)cc3)n2Cc2ccco2)C(=O)C1,"0.116 µM [falling, full curve, poor fit]",0.936%,–
Cc1cc(C(=O)CSc2nc3ccccc3n2C)c(C)n1C,"7.31 µM [rising, single point]",19%,"3.26 µM [rising, single point]"
CCCCC(=O)NC(=S)Nc1ccccc1N1CCCCC1,"18.4 µM [rising, single point]",28.5%,–
O=C(CCC(=O)N(CC(=O)NC1CCCC1)c1cccc(F)c1)Nc1nccs1,–,915%,"29.1 µM [rising, single point]"
COc1ccc(C(C)=O)cc1COC(=O)c1cccc(N(C)C)c1,"0.517 µM [rising, full curve]",0.576%,–
Cc1cc(N)n(-c2ccccc2)n1,"0.411 µM [falling, full curve, poor fit]",-6.41%,–
CN=C(c1ccc(C)cc1)n1c(=S)nc(-c2ccc(C)cc2)n(C)c1=S,"18.4 µM [falling, single point]",-48.2%,"29.1 µM [falling, single point]"

# Random excerpt: 3 entries already listed
Compound,AC50 [1],cell number change,AC50 [2]
O=C(Nc1cccc2ncccc12)C(c1ccccc1)c1ccccc1,"0.092 µM [falling, full curve, poor fit]",-0.308%,"0.206 µM [falling, full curve]"
S=C(NCc1ccccc1)NCc1ccco1,"6.51 µM [falling, single point]",-7.43%,–
CCOc1ccc(NC(=O)c2cccc(NC3=NC4CS(=O)(=O)CC4S3)c2)cc1 (stereo not given),–,-5.48%,–

# The list continues.

Compound,AC50 [1],cell number change,AC50 [2]
COc1ccc(N/N=C(/C#N)S(=O)(=O)c2nsc(C)c2C#N)cc1,"1.46 µM [rising, partial curve, poor fit]",–,"1.64 µM [rising, partial curve, poor fit]"
C=CCNC(=S)NNC(=O)c1ccc(=O)n(Cc2ccc(Cl)cc2Cl)c1,"0.00461 µM [rising, full curve, poor fit]",19.8%,"0.0058 µM [rising, full curve, poor fit]"
O=C(NC1CCN(Cc2ccc(F)cc2)CC1)c1ccccc1,"2.59 µM [rising, full curve]",3.42%,–
CCCCNC(=O)c1onc(CSc2ccc(C)c(C)c2)c1C(=O)O,"6.51 µM [falling, single point]",4.97%,–
COc1cccc(OCc2cc(C(=O)N3CCN(C4CCCCC4)C(=O)C3)no2)c1,–,-9.85%,–
COc1ccc(OC)c(CCNC(=O)CN2C(=O)COc3ccc(S(=O)(=O)N4CCOCC4)cc32)c1,–,-8.56%,–
CC(C)NC(=O)NNc1c(Cl)cncc1Cl,"6.51 µM [falling, single point]",-9.89%,–
CCc1ccc(N=C2NC(=O)/C(=C/c3cc(OC)c(O)c(OC)c3)S2)cc1,"23.1 µM [falling, single point]",-84.2%,–
Cc1ccc(S(=O)(=O)Nc2ccncc2)c(C)c1,"29.1 µM [falling, single point]",17%,–
Cn1c(=O)[nH]c(=O)c2c1nc(N1CCC(Cc3ccccc3)CC1)n2Cc1ccccc1,–,-37.7%,"9.2 µM [falling, partial curve, poor fit]"
Cc1nnc(NC(=O)C2CCCCC2)s1,"0.651 µM [falling, single point]",6.42%,–
CCN(CC(=O)Nc1ccc(NC(C)=O)cc1)C(=O)c1cc(C)on1,"4.11 µM [falling, partial curve]",-16.7%,"3.26 µM [falling, partial curve, poor fit]"
COc1cccc(C2(O)CCN(CC(=O)NCC3CC3)CC2)c1,"0.58 µM [falling, single point]",15.2%,–
O=C(c1ccco1)N1CCC(c2nc(-c3ccc(F)cc3)no2)CC1,"0.82 µM [falling, full curve, poor fit]",-152%,"18.4 µM [falling, partial curve]"
COc1ccccc1/C=C\C(=O)NCC(=O)N/N=C(\C)Cc1ccccc1,"0.461 µM [falling, partial curve, poor fit]",-7.9%,–
CS(=O)(=O)c1ncc(Cl)c(C(=O)Nc2ccc(OC(F)F)cc2)n1,"14.6 µM [falling, partial curve]",–,–
CC1Cc2cc(S(=O)(=O)N3CCN(c4ccccc4F)CC3)ccc2N1C(=O)C1CC1 (stereo not given),"7.31 µM [falling, partial curve]",12.6%,–
CCc1nc2ccccc2n1Cc1ccccc1OC,"29.1 µM [falling, single point]",31.6%,"32.6 µM [rising, single point]"
